Experimental data reported in patent publication US20210261642A1, “SOLUBILITY OF GLP-1 PEPTIDE” (Novo Nordisk A/S, priority 2017, published 2021).
Further values from the same series stand in other lists.

Assay: Assay (I): Determination of Solubility (96-well plate, pH 3.0-11.0, organic solvent 0-70% w/w, UV absorption at 280 nm)
Type: physicochemical
Procedure: Assay (I): Determination of Solubility
96-Well Plate Preparation
96-well plates containing target peptide in a solid form were prepared in one of two ways:
Method 1 (evaporation): Addition of 100 μl stock solution of said peptide at a concentration of 4-6 mg/ml to each well of a 96-well half area plate (150 μl well size). Subsequently the solvent was evaporated by applying a vacuum until the solvent was completely removed.
Method 2 (precipitation): Addition of a certain volume of a stock solution of said peptide containing to each well of a 96-well half area plate followed by the addition of a certain volume of concentrated phosphoric acid to obtain a pH of 4.6 followed by addition of a certain volume of ethanol resulting in a final ethanol concentration of 20% v/v. Subsequently the plate was stored at 4° C. for 1 h and then centrifuged at 4,000 rpm for 20 min. Finally the supernatant was removed. The concentration of the stock solution was chosen in a way that the final amount of peptide after supernatant removal was >0.4 mg per well.
In both cases the stock solution was prepared by adding de-ionized water to a certain amount of powder of said peptide followed by a stepwise addition of small amounts of a concentrated sodium hydroxide solution until said peptide was completely in solution.
To determine solubility of a target peptide at different pH and organic solvent concentrations, two different buffer systems were used in independent experiments to cover the whole range from pH 3.0 to pH 11.0. Buffer system 1 covers pH 3.0-7.5 and buffer system 2 covers pH 7.5-11.0. For each buffer system 96 different solvent compositions were premixed in the following way: • 1. A low pH buffer (adjusted to either pH 3.0 or pH 7.5) and a high pH buffer (adjusted to either pH 7.5 or pH 11.0) were mixed at 8 different ratios to obtain values between pH 3.0 and pH 7.5 or pH 7.5 and pH 11.0, respectively. The total volume after mixing was 300 μl. • 2. 12 different amounts of organic solvent were then added to these buffers to obtain organic solvent (e.g. ethanol) concentrations between 0 and 70% w/w. • 3. Water was then added to obtain a total weight of 1.0 g of solvent in each well.
After preparing the 96 different solvent systems, 100 μl of each system was transferred to the 96-well plate containing the solid form of the target peptide (prepared as described in the section “96-well plate preparation”). The plate was then stored at a given temperature (between 5° C. and 70° C.) for a given time on a rotating shaker set to 400 rpm. At regular time intervals the plate was centrifuged (4,000 rpm for 10 min) and a 10 μl sample was taken from each well. The samples were then analysed by UV absorption at 280 nm for peptide quantification. Peptide concentration results are given as UV absorption at 280 nm of the sample subtracted UV absorption at 280 nm of a well comprising 10 μl water.
The buffers used were as follows: • Buffer system 1 (for the pH range from pH 3.0-7.5)
• Buffer system 2 (for the pH ranae from pH 7.5-11.0)
Solubility of liraglutide was determined using Assay (I) described herein. Liraglutide was prepared using Method 1 (evaporation) or Method 2 (precipitation) as described in subsection “96-well plate preparation”.

[1] = MeCN 57.3% w/w, pH 3.0, RT, Method 1
[2] = MeCN 57.3% w/w, pH 3.6, 5° C., Method 1
[3] = MeCN 57.3% w/w, pH 3.6, RT, Method 1
[4] = MeCN 57.3% w/w, pH 4.3, 5° C., Method 1
[5] = MeCN 57.3% w/w, pH 4.3, 70° C., Method 1
[6] = MeCN 57.3% w/w, pH 4.3, RT, Method 1
[7] = MeCN 57.3% w/w, pH 4.9, 5° C., Method 1
[8] = MeCN 57.3% w/w, pH 4.9, 70° C., Method 1
[9] = MeCN 57.3% w/w, pH 4.9, RT, Method 1
[10] = MeCN 57.3% w/w, pH 5.6, 5° C., Method 1
[11] = MeCN 57.3% w/w, pH 5.6, 70° C., Method 1
[12] = MeCN 57.3% w/w, pH 5.6, RT, Method 1
[13] = MeCN 57.3% w/w, pH 6.2, 5° C., Method 1
[14] = MeCN 57.3% w/w, pH 6.2, 70° C., Method 1
[15] = MeCN 57.3% w/w, pH 6.2, RT, Method 1
[16] = MeCN 57.3% w/w, pH 6.9, 5° C., Method 1
[17] = MeCN 57.3% w/w, pH 6.9, 70° C., Method 1
[18] = MeCN 57.3% w/w, pH 6.9, RT, Method 1
[19] = MeCN 57.3% w/w, pH 7.5, 5° C., Method 1
[20] = MeCN 57.3% w/w, pH 7.5, 70° C., Method 1
[21] = MeCN 57.3% w/w, pH 7.5, RT, Method 1
[22] = MeCN 57.3% w/w, pH 8.0, 70° C., Method 1 (evaporation)
[23] = MeCN 57.3% w/w, pH 8.0, RT, Method 1
[24] = MeCN 57.3% w/w, pH 8.5, 70° C., Method 1 (evaporation)
[25] = MeCN 57.3% w/w, pH 8.5, RT, Method 1
[26] = MeCN 57.3% w/w, pH 9.0, 70° C., Method 1 (evaporation)
[27] = MeCN 57.3% w/w, pH 9.0, RT, Method 1
[28] = MeCN 57.3% w/w, pH 9.5, 70° C., Method 1 (evaporation)
[29] = MeCN 57.3% w/w, pH 9.5, RT, Method 1
[30] = MeCN 57.3% w/w, pH 10.0, 70° C., Method 1 (evaporation)
[31] = MeCN 57.3% w/w, pH 10.0, RT, Method 1
[32] = MeCN 57.3% w/w, pH 10.5, 70° C., Method 1 (evaporation)
[33] = MeCN 57.3% w/w, pH 10.5, RT, Method 1
[34] = MeCN 57.3% w/w, pH 11.0, 70° C., Method 1 (evaporation)
[35] = MeCN 57.3% w/w, pH 11.0, RT, Method 1
[36] = MeCN 63.6% w/w, pH 3.0, 5° C., Method 1
[37] = MeCN 63.6% w/w, pH 3.0, 70° C., Method 1

## CCCCCCCCCCCCCCCC(=O)N[C@@H](CCC(=O)NCCCC[C@H](NC(=O)[C@H](C)NC(=O)[C@H](C)NC(=O)[C@H](CCC(N)=O)NC(=O)CNC(=O)[C@H](CCC(=O)O)NC(=O)[C@H](CC(C)C)NC(=O)[C@H](Cc1ccc(O)cc1)NC(=O)[C@H](CO)NC(=O)[C@H](CO)NC(=O)[C@@H](NC(=O)[C@H](CC(=O)O)NC(=O)[C@H](CO)NC(=O)[C@@H](NC(=O)[C@H](Cc1ccccc1)NC(=O)[C@@H](NC(=O)CNC(=O)[C@H](CCC(=O)O)NC(=O)[C@H](C)NC(=O)[C@@H](N)Cc1cnc[nH]1)[C@@H](C)O)[C@@H](C)O)C(C)C)C(=O)N[C@@H](CCC(=O)O)C(=O)N[C@@H](Cc1ccccc1)C(=O)N[C@H](C(=O)N[C@@H](C)C(=O)N[C@@H](Cc1c[nH]c2ccccc12)C(=O)N[C@@H](CC(C)C)C(=O)N[C@H](C(=O)N[C@@H](CCCNC(=N)N)C(=O)NCC(=O)N[C@@H](CCCNC(=N)N)C(=O)NCC(=O)O)C(C)C)[C@@H](C)CC)C(=O)O [liraglutide, Arg34,Lys26-(N-epsilon-(gamma-L-glutamyl(N-alfa-hexadecanoyl)))-GLP-1(7-37)]
MeCN 57.3% w/w, pH 3.0, 70° C., Method 1
  Peptide concentration after 180 min: 2.6 mg/mL
[1]
  Peptide concentration after 5 min: 0.4 mg/mL
  Peptide concentration after 180 min: 1.0 mg/mL
  Peptide concentration after 24 h: 1.3 mg/mL
[2]
  Peptide concentration after 5 min: 0.2 mg/mL
  Peptide concentration after 180 min: 0.5 mg/mL
  Peptide concentration after 24 h: 0.7 mg/mL
MeCN 57.3% w/w, pH 3.6, 70° C., Method 1
  Peptide concentration after 5 min: 0.5 mg/mL
[3]
  Peptide concentration after 5 min: 0.2 mg/mL
  Peptide concentration after 180 min: 0.4 mg/mL
  Peptide concentration after 24 h: 0.4 mg/mL
[4]
  Peptide concentration after 5 min: 0.2 mg/mL
  Peptide concentration after 180 min: 0.4 mg/mL
  Peptide concentration after 24 h: 0.5 mg/mL
[5]
  Peptide concentration after 5 min: 0.5 mg/mL
  Peptide concentration after 180 min: 1.3 mg/mL
[6]
  Peptide concentration after 5 min: 0.2 mg/mL
  Peptide concentration after 180 min: 0.4 mg/mL
  Peptide concentration after 24 h: 0.3 mg/mL
[7]
  Peptide concentration after 5 min: 0.2 mg/mL
  Peptide concentration after 180 min: 0.4 mg/mL
  Peptide concentration after 24 h: 0.4 mg/mL
[8]
  Peptide concentration after 5 min: 0.6 mg/mL
  Peptide concentration after 180 min: 1.3 mg/mL
[9]
  Peptide concentration after 5 min: 0.2 mg/mL
  Peptide concentration after 180 min: 0.4 mg/mL
  Peptide concentration after 24 h: 0.2 mg/mL
[10]
  Peptide concentration after 5 min: 0.3 mg/mL
  Peptide concentration after 180 min: 0.6 mg/mL
  Peptide concentration after 24 h: 0.7 mg/mL
[11]
  Peptide concentration after 5 min: 0.9 mg/mL
  Peptide concentration after 180 min: 1.8 mg/mL
[12]
  Peptide concentration after 5 min: 0.3 mg/mL
  Peptide concentration after 180 min: 0.6 mg/mL
  Peptide concentration after 24 h: 0.5 mg/mL
[13]
  Peptide concentration after 5 min: 0.6 mg/mL
  Peptide concentration after 180 min: 0.7 mg/mL
  Peptide concentration after 24 h: 0.7 mg/mL
[14]
  Peptide concentration after 5 min: 0.9 mg/mL
  Peptide concentration after 180 min: 2.0 mg/mL
[15]
  Peptide concentration after 5 min: 0.5 mg/mL
  Peptide concentration after 180 min: 0.5 mg/mL
  Peptide concentration after 24 h: 0.6 mg/mL
[16]
  Peptide concentration after 5 min: 0.3 mg/mL
  Peptide concentration after 180 min: 0.6 mg/mL
  Peptide concentration after 24 h: 1.1 mg/mL
[17]
  Peptide concentration after 5 min: 0.9 mg/mL
  Peptide concentration after 180 min: 2.7 mg/mL
[18]
  Peptide concentration after 5 min: 0.4 mg/mL
  Peptide concentration after 180 min: 0.8 mg/mL
  Peptide concentration after 24 h: 0.9 mg/mL
[19]
  Peptide concentration after 5 min: 1.6 mg/mL
  Peptide concentration after 180 min: 2.3 mg/mL
  Peptide concentration after 24 h: 2.9 mg/mL
[20]
  Peptide concentration after 5 min: 3.3 mg/mL
  Peptide concentration after 180 min: >4.0 mg/mL
[21]
  Peptide concentration after 5 min: 0.8 mg/mL
  Peptide concentration after 180 min: 3.0 mg/mL
  Peptide concentration after 24 h: >4.0 mg/mL
[22]
  Peptide concentration after 5 min: 3.4 mg/mL
  Peptide concentration after 180 min: >4.0 mg/mL
[23]
  Peptide concentration after 5 min: 0.6 mg/mL
  Peptide concentration after 180 min: 2.8 mg/mL
  Peptide concentration after 24 h: >4.0 mg/mL
[24]
  Peptide concentration after 5 min: 3.7 mg/mL
  Peptide concentration after 180 min: >4.0 mg/mL
[25]
  Peptide concentration after 5 min: 0.5 mg/mL
  Peptide concentration after 180 min: 2.9 mg/mL
  Peptide concentration after 24 h: >4.0 mg/mL
[26]
  Peptide concentration after 5 min: 1.6 mg/mL
  Peptide concentration after 180 min: >4.0 mg/mL
[27]
  Peptide concentration after 5 min: 0.4 mg/mL
  Peptide concentration after 180 min: 2.2 mg/mL
  Peptide concentration after 24 h: >4.0 mg/mL
[28]
  Peptide concentration after 5 min: 4.0 mg/mL
  Peptide concentration after 180 min: >4.0 mg/mL
[29]
  Peptide concentration after 5 min: 0.7 mg/mL
  Peptide concentration after 180 min: 3.0 mg/mL
  Peptide concentration after 24 h: >4.0 mg/mL
[30]
  Peptide concentration after 5 min: 2.5 mg/mL
  Peptide concentration after 180 min: >4.0 mg/mL
[31]
  Peptide concentration after 5 min: 1.0 mg/mL
  Peptide concentration after 180 min: 2.0 mg/mL
  Peptide concentration after 24 h: >4.0 mg/mL
[32]
  Peptide concentration after 5 min: 2.6 mg/mL
  Peptide concentration after 180 min: >4.0 mg/mL
[33]
  Peptide concentration after 5 min: 0.8 mg/mL
  Peptide concentration after 180 min: 1.6 mg/mL
  Peptide concentration after 24 h: >4.0 mg/mL
[34]
  Peptide concentration after 5 min: 3.6 mg/mL
  Peptide concentration after 180 min: >4.0 mg/mL
[35]
  Peptide concentration after 5 min: 0.7 mg/mL
  Peptide concentration after 180 min: 2.7 mg/mL
  Peptide concentration after 24 h: >4.0 mg/mL
[36]
  Peptide concentration after 5 min: 0.4 mg/mL
  Peptide concentration after 180 min: 0.7 mg/mL
  Peptide concentration after 24 h: 1.2 mg/mL
[37]
  Peptide concentration after 5 min: 0.9 mg/mL
  Peptide concentration after 180 min: 2.8 mg/mL
MeCN 63.6% w/w, pH 3.0, RT, Method 1
  Peptide concentration after 5 min: 0.3 mg/mL
